# Data: PubChem BioAssay AID1347423 (Functional Genomics Laboratory (NCATS/FGL), 2020)
# The whole screen tested about 52,000 sequences, of which about 210 (0.4%) were called active.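 The calls were made as follows: active = gene whose silencing raises cell survival under the drug, median off-target-corrected z-score across its silencing RNAs 2 or more; inactive = the rest.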 Some of the results follow.
# Test: Resistance to Poly (ADP-Ribose) Polymerase inhibitor: Gene Identification via Genome-wide siRNA Screen
# Details: mouse BRCA2 R2336H ES cells, olaparib, CellTiter-Glo viability; active compounds read high
# How it was run: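 Genome-wide siRNA screen (3 siRNAs/gene, 20 nM) in mouse ES cells carrying hypomorphic BRCA2 R2336H; olaparib 500 nM added 48 h post-transfection, CellTiter-Glo viability 72 h later. Normalized to plate-median negative control; MAD z-scores, gene median, seed-adjusted.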
row,Sequence,z-score
1,GCUCUCUCUCAUUGAUCUCTT against Olfr697,inactive: 0.475
2,GCAGUCUUUUGGAUAGGUUTT against Ccni,inactive: 0.638
3,CGCGAGAAGACGAAUUCUCTT against Pknox1,inactive: 0.136
4,CCAGGAUCCUUCUAAGUGCTT against Tes,inactive: -0.659
5,GGAAGGUCUGCUAUAAGUATT against Ifi30,inactive: -0.176
6,GGGCCAAAGGAAACAGCACTT against Slc24a5,inactive: 1.83
7,GCUUCGAUCGCUGGAAUGUTT against Dctn4,inactive: -1.09
8,GCCGUCUUUACAUUCCUGATT against Olfr605,inactive: 1.12
9,GGACAUUUCAAAAGAAAGGTT against 6330406I15Rik,inactive: 0.0653
10,GGUCAAGCCAGUGGGCUAATT against Gtrgeo22,inactive: -0.66
11,CCAUUUAUCCUCUUUUCCGTT against Plekhb1,inactive: 0.929
12,GCCGAGGACCACAUUAAAGTT against Crtap,inactive: 0.743
13,GCCGUGAUCGACUUGAAUATT against U2af1,inactive: -2.97
14,CCCAGUGGUUUUAAAGCAUTT against Commd3,inactive: 0.547
15,CCCAUUAUGGAGCUAGAAATT against Arid4b,inactive: -2.21
16,GGAACAUGUCGUAAAUAAGTT against Trim7,inactive: 0.753
17,GCUCAUGUGACUAUUGUUATT against Olfr1512,inactive: -0.34
18,GGACAUCUGGGAAUACCUCTT against Actl7a,inactive: 1.52
19,GGUGGGAAUGGGAAUCAGUTT against Akr1e1,inactive: 1.57
20,GGGUAUUAUCAAGGAGGAGTT against Bclaf1,inactive: -0.185
21,GCAUACCCUAUUUAGUUUUTT against Gpr33,inactive: -0.224
22,GGUGAAACUGAAUAAAAUCTT against 4931406C07Rik,inactive: 1.09
23,GCCGUAGUUAAGGUAUCUGTT against Butr1,inactive: -0.663
24,GGGAGACUAUCCUUGCUGGTT against Cryba2,inactive: 1.37
25,GGCUAUGUUAUUGACAUGUTT against E230022H04Rik,inactive: 0.177
26,GUCCCAAUACCUUCUUGUUTT against V1rc28,inactive: -2.01

# No new results follow: entries from further up.
row,Sequence,z-score
22,GGUGAAACUGAAUAAAAUCTT against 4931406C07Rik,inactive: 1.09
23,GCCGUAGUUAAGGUAUCUGTT against Butr1,inactive: -0.663
24,GGGAGACUAUCCUUGCUGGTT against Cryba2,inactive: 1.37
25,GGCUAUGUUAUUGACAUGUTT against E230022H04Rik,inactive: 0.177
26,GUCCCAAUACCUUCUUGUUTT against V1rc28,inactive: -2.01

# The results go on.

row,Sequence,z-score
1,GGUUUUGUUCAGGGAUCAUTT against 2810423O19Rik,inactive: 0.327
2,GGUGACAUGGAUGUAGCAATT against Fuk,inactive: 0.792
3,CCAUUCCAAAGGUAUUAGCTT against Olfr619,inactive: -0.526
4,CCUCAGAGCCACGACAUUUTT against 2810438M17Rik,inactive: -1.08
5,GGGUGGUGUCUUCAAGUCATT against Nat3,inactive: -0.519
6,CCAAAGCUUGCUUUAAAACTT against 1700034H14Rik,inactive: 0.564
7,GGUUUGCCUGCUGAUGACATT against Olfr883,inactive: -0.443
8,GGAACUUUGUCUUUCAUACTT against Clspn,inactive: -2.86
9,GGCUACGUUUUUGUAUUCUTT against Slc35d2,inactive: 2.22
10,ACUGACCUUUGUUCCACAUTT against V1rc1,inactive: -0.417
11,GGACAUUUUUGUCUCUAAATT against 2310028N02Rik,inactive: 0.297
12,GCCUUCAUUAUUUUAAUGCTT against Ilf3,inactive: -0.226
13,GGGAGGCUGUUGUCAAUCCTT against Krtap5-4,inactive: 0.758
14,GGAAAAAUUUCCAGAGGUUTT against Pnpt1,inactive: 0.0471
15,GGGCUGGUUCGAGCCAAUATT against Apoe,inactive: 1.03
16,GGUUAACGAAGGAGAGAAGTT against 1700027N10Rik,inactive: -1.17
17,GGCCUCUUCACUUAUGUAUTT against Inha,inactive: -1.12
18,GGUGGCUUUGGCUGCAUCUTT against Vrk1,inactive: 1.23
19,CCCACCGCCAUGACAUUAUTT against Klk15,inactive: -0.64
20,GGAUAUCACUUGCUAUUCCTT against C430003P19Rik,inactive: -0.334
21,CCUGUAGUUUGUUGAAUCUTT against 2410018L13Rik,inactive: 0.8
22,GGCAUUCUGAAAACAACUCTT against 0610039P13Rik,inactive: 0.0934
23,GGAAAAGAUCACCAGGAGCTT against Pin1,inactive: -0.355
24,CCUCGCCUGUACUAGCUAUTT against Rilp,inactive: 0.892
25,GGACUUAAGUAAGAUGAAGTT against Pcqap,inactive: 0.889
26,GGGAUCCUAACAUCAGGGATT against Ly6c,inactive: -0.773

row,Sequence,z-score
1,GGAAAUCACGACCAUGGCGTT against Gtf2b,inactive: -0.26
2,GCACUGAAGUUUAGUAAAATT against Stag3,inactive: -0.903
3,GGAAUAAUCCCAGUUCUCUTT against 2610511E22Rik,inactive: 0.775
4,GGUGGAGGAACGAAAGUUUTT against 2610028I09Rik,inactive: -1.07
5,GGAAUGGUUUUUCAAGACUTT against 4931409K22Rik,inactive: 0.0657
6,GCAUGCAACUAUUUAUCCATT against Zfr,inactive: -0.228
7,GGGAAUCCGUCCCAAGAAGTT against Rrs1,inactive: 0.798
8,GGUUCACUCAACUCAACAATT against 1700094C09Rik,inactive: -0.25
9,GGUACAGUUAAAGAAUCUGTT against 1110064P04Rik,inactive: -0.822
10,GGCUGCACUAGACGAAUGCTT against 2600005C20Rik,inactive: 1.16
11,GCUGUGAGCAAGAGUAAUCTT against BC011487,inactive: -2.69
12,GGAUGUGAAGUCAGUUUCATT against BC025833,inactive: 0.365
13,CCUCUGUAAGAUAAUGUUUTT against Ctsm,inactive: -1.11
14,GCACAAAUUUGAAGAUCUATT against Ptprb,inactive: 0.608
15,GGCUCUUAUUGCCCUAACCTT against 2310003F16Rik,inactive: 0.727
16,GCAUUGGAGCUAAAUCUGGTT against Tcap,inactive: 0.537
17,GGAAGUACAAACUACUAGUTT against 1110007A13Rik,inactive: -0.797
18,GCUGAACCAAUGUAGAAUATT against 5730409F24Rik,inactive: 0.392
19,GGUUUUUGACUUGAGUCAUTT against Olfr689,inactive: 0.642
20,GGAGGACUCUGCUUCCAUATT against 9430086K21Rik,inactive: -1.31
21,GACAAGCUGUGGAGAAGUGTT against Sprrl5,inactive: -2.45
22,GGGAUUCUGUCUGCACUGUTT against Olfr1145,inactive: 1.25
23,GGAGUAACUAUUCCCAAUUTT against Herc1,inactive: -0.489
24,GGAAGAAUUUUCGCCAACATT against Iqcb1,inactive: 0.354
25,GGAGAGUACUUCCAGUAAGTT against Glycam1,inactive: -0.511
26,GGAAAGCUAAUUUUGAAACTT against 5033428A16Rik,inactive: 2.22

row,Sequence,z-score
1,GGUCUUUGAGACAGAUAUUTT against Colec12,inactive: -0.251
2,GCAUAAAGAAGGAAUCACCTT against 5430413I02Rik,inactive: 0.327
3,CCAUCUAAAGGCAUGCAAGTT against Cmah,inactive: 1.49
4,GGUGUUUGAUAAUGAAGAGTT against Dnahc1,inactive: -0.421
5,GCCAAUAUAGGUUUUAGGUTT against Serpinb6b,inactive: 0.596
6,GGAGAUACAUUGGUAGGUATT against Idua,inactive: -0.889
7,GGAUCAAUCAUGCAUCCAUTT against Lipc,inactive: -0.902
8,GGAACACAAAGGUAAGAAATT against Raf1,inactive: 0.462
9,GGCGUACAGUAUUUCCUACTT against Il17d,inactive: 0.292
10,GGCUUCAUAAGAUCAAAGATT against 4921526F01Rik,inactive: -0.865
11,GCAUUAAGGUCUUACUCCATT against Rufy1,inactive: 0.172
12,GCAUGAACUUACCCUAUUATT against V1rh21,inactive: -1.38
13,CGCGGAGGACUACAAUGAGTT against Katnb1,inactive: -0.254
14,GGUGCUUUAUUCAUAAAGATT against Gprc5b,inactive: 0.749
15,CCUAAUUGAAAUCAGCAGUTT against Hip1r,inactive: 0.325
16,GGCUCAGAUCUUUGACUACTT against Pnp,inactive: 0.273
17,CCCAGAUUACCGUAAGCGATT against Jup,inactive: -0.124
18,CCUGAUUGUGUGUUCAUAATT against D5Bwg0834e,inactive: -2.41
19,CGGGAAGUAAACAUUUCCATT against Rassf6,inactive: -0.0315
20,GCCUUGAUACAGAACAUGATT against E330040A16Rik,inactive: -1.78
21,GGAAGAUUAAAGGACAGUATT against D17Wsu94e,inactive: -1.14
22,GCUGACCAGUAAGUUGUAUTT against Zswim5,inactive: 0.142
23,GGUCUCAGCAAUCUGUUCCTT against 1700029I15Rik,inactive: -3.14
24,GGAUUGUCCUUCGACUACGTT against Itgb3,inactive: -0.303
25,CCAGUGCCUAUUAAAAUGCTT against Sox30,inactive: 1.35
